PubChem BioAssay AID1159578, Peter MacCallum Cancer Centre | 2015

Test: 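Knock-downs that alter how fast lymphatic endothelial cells migrate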 (primary screen)
Cell system: human lymphatic endothelial cells
Reagents: siRNA pool against human genes, 40 nM
Timing: 48 h after transfection
Measured: 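Cells stained with dye and imaged after a scratch; covered wound area and nuclei counted, duplicates averaged, migration set against mock wells and turned into a robust z-score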
Direction: migration robust z-score: higher = faster migration into the scratch; migration relative to mock: higher = more scratch area covered than mock; nuclei per well: higher = more cells in the well
Active means: 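Pools averaging fewer than 3300 nuclei are never called; remaining pools count as changed when migration robust z lies outside -2 to 2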
Calls: active = migration changed; inactive = no migration change, or too few cells
The deposit covers about 18,000 reagents; below is a part drawn at random. About 1,030 of them (5.7%) count as active. 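Inactive calls also include pools with fewer than 3300 nuclei, whose migration was not assessed.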 Raw values vary from plate to plate and are shown uncorrected.

Gene	PubChem SID	migration robust z-score	migration class with cell-count check	migration relative to mock	nuclei per well, duplicate mean	activity call
CST9L (cystatin 9 like)	SID255362813	0.78	migration z between -2 and 2; enough cells	1.08	4808	inactive
DSC3 (desmocollin 3)	SID255349376	-3.8	under 3300 nuclei; migration not judged	-0.1	2970	inactive
GPR156 (G protein-coupled receptor 156)	SID255363833	-1.29	migration z between -2 and 2; enough cells	0.55	4823	inactive
RAB11FIP1 (RAB11 family interacting protein 1)	SID255360714	0.64	migration z between -2 and 2; enough cells	1.05	6284	inactive
TMEM144 (transmembrane protein 144)	SID255358590	-0.11	migration z between -2 and 2; enough cells	0.86	5782	inactive
NCLN (nicalin)	SID255359172	-0.28	migration z between -2 and 2; enough cells	0.82	5652	inactive
ZCWPW1 (zinc finger CW-type and PWWP domain containing 1)	SID255358381	1.03	migration z between -2 and 2; enough cells	1.15	6589	inactive
ZNF771 (zinc finger protein 771)	SID255357659	-1.06	migration z between -2 and 2; enough cells	0.61	5356	inactive
AUP1 (AUP1 lipid droplet regulating VLDL assembly factor)	SID255348488	0.14	migration z between -2 and 2; enough cells	0.92	5520	inactive
SLC27A4	SID255355511	1.01	migration z between -2 and 2; enough cells	1	5182	inactive
RELL2 (RELT like 2)	SID255364868	1.74	migration z between -2 and 2; enough cells	1.34	5896	inactive
ALPK3 (alpha kinase 3)	SID255359453	0.02	migration z between -2 and 2; enough cells	0.81	4054	inactive
KRTAP22-1 (keratin associated protein 22-1)	SID255364975	0.19	migration z between -2 and 2; enough cells	0.94	4991	inactive
FEM1C (fem-1 homolog C)	SID255359175	1.45	migration z between -2 and 2; enough cells	1.26	5577	inactive
PHLDA1 (pleckstrin homology like domain family A member 1)	SID255355794	-0.22	migration z between -2 and 2; enough cells	0.83	5484	inactive
VXN (vexin)	SID255364465	1.01	migration z between -2 and 2; enough cells	1.15	6069	inactive
PDP1 (pyruvate dehydrogenase phosphatase catalytic subunit 1)	SID255358129	0.08	migration z between -2 and 2; enough cells	0.82	5210	inactive
FUBP3 (far upstream element binding protein 3)	SID255353934	0.6	migration z between -2 and 2; enough cells	1.04	5687	inactive
KRTAP4-4 (keratin associated protein 4-4)	SID255361419	-0.78	migration z between -2 and 2; enough cells	0.68	4998	inactive
QSOX1 (quiescin sulfhydryl oxidase 1)	SID255351943	-3.58	under 3300 nuclei; migration not judged	0.12	3128	inactive
WFDC13 (WAP four-disulfide core domain 13)	SID255363807	-0.27	migration z between -2 and 2; enough cells	0.81	5876	inactive
ENTPD5 (ectonucleoside triphosphate diphosphohydrolase 5)	SID255348787	-0.76	migration z between -2 and 2; enough cells	0.66	5798	inactive
GPRIN3 (GPRIN family member 3)	SID255364857	1.08	migration z between -2 and 2; enough cells	1.17	3996	inactive

Copied from the entries so far, 3 entries:
Gene	PubChem SID	migration robust z-score	migration class with cell-count check	migration relative to mock	nuclei per well, duplicate mean	activity call
SLC27A4	SID255355511	1.01	migration z between -2 and 2; enough cells	1	5182	inactive
RELL2 (RELT like 2)	SID255364868	1.74	migration z between -2 and 2; enough cells	1.34	5896	inactive
ALPK3 (alpha kinase 3)	SID255359453	0.02	migration z between -2 and 2; enough cells	0.81	4054	inactive

Continued.
Gene	PubChem SID	migration robust z-score	migration class with cell-count check	migration relative to mock	nuclei per well, duplicate mean	activity call
PATL1 (PAT1 homolog 1, processing body mRNA decay factor)	SID255364229	-1.85	migration z between -2 and 2; enough cells	0.4	4862	inactive
TMPRSS5 (transmembrane serine protease 5)	SID255360841	0.88	migration z between -2 and 2; enough cells	0.97	5269	inactive
ZNF813 (zinc finger protein 813)	SID255362679	1.52	migration z between -2 and 2; enough cells	1.27	5662	inactive
IL5RA (interleukin 5 receptor subunit alpha)	SID255350457	0.6	migration z between -2 and 2; enough cells	0.92	7358	inactive
SS18L2 (SS18 like 2)	SID255357547	-0.36	migration z between -2 and 2; enough cells	0.79	4403	inactive
DYNLT2B (dynein light chain Tctex-type 2B)	SID255364506	-0.55	migration z between -2 and 2; enough cells	0.74	7283	inactive
MAD2L1 (mitotic arrest deficient 2 like 1)	SID255350833	-1.01	migration z between -2 and 2; enough cells	0.61	5040	inactive
UCP3 (uncoupling protein 3)	SID255353052	0.1	migration z between -2 and 2; enough cells	0.82	7553	inactive
VPS35 (VPS35 retromer complex component)	SID255358817	1.08	migration z between -2 and 2; enough cells	1.17	6468	inactive
NF2 (NF2, moesin-ezrin-radixin like (MERLIN) tumor suppressor)	SID255351212	-0.4	migration z between -2 and 2; enough cells	0.78	4931	inactive
MAPK3 (mitogen-activated protein kinase 3)	SID255351812	-1.58	under 3300 nuclei; migration not judged	0.5	2746	inactive
POFUT4 (protein O-fucosyltransferase 4)	SID255363896	0.48	migration z between -2 and 2; enough cells	1.01	4860	inactive
